Measured values from publication PMC11672745.
No constants are given. Whether binding was seen depends on the method and setting. Binding calls can cover weak binding; strength is not graded here. For some of these results: In cells and extracts the contact can be indirect.

By UniProt entry, the sequences of proteins in these tests, tags left out. Where a name states a change or a piece, a line headed by the entry shows the natural chain unless it says otherwise.
UniProt L7QJV4: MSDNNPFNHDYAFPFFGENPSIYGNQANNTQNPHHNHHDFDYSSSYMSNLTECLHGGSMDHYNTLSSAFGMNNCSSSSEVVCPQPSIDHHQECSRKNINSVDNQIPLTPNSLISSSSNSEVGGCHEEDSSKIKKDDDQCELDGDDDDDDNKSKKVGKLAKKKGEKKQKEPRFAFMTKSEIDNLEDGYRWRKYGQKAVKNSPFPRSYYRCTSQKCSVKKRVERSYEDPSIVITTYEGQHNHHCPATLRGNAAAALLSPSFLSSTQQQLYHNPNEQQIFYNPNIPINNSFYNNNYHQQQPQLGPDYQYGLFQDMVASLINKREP
UniProt B6D1Q5: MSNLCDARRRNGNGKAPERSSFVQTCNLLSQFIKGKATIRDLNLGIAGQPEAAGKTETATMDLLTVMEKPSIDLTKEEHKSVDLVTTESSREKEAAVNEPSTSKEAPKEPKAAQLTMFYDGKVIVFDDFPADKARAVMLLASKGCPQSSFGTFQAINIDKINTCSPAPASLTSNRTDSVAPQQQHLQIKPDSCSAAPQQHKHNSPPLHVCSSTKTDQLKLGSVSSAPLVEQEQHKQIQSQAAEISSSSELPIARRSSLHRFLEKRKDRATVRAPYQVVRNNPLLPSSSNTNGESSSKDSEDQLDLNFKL
UniProt A0A3Q7FUH8: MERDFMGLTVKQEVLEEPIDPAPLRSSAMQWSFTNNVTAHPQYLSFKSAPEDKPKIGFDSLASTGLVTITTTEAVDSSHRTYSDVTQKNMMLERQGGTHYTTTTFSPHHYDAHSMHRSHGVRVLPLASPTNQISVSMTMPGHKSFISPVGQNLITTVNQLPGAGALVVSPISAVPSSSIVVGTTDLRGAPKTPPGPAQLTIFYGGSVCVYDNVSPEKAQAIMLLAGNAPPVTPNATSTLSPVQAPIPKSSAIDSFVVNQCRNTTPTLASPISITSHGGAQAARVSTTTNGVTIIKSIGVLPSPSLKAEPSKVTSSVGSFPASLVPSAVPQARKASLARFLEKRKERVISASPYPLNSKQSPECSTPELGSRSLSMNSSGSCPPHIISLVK
UniProt A0A3Q7H988: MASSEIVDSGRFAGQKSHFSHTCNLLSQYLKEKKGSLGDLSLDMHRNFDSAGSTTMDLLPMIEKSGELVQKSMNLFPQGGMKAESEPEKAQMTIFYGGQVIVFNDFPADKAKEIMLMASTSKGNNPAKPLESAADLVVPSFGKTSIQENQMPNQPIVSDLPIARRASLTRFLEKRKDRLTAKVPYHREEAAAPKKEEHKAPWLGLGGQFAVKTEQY

Legend:
[1] = target: C-terminal part of LUC (cLUC)-fused SlWRKY30IIc (tomato (Solanum lycopersicum)) (UniProt L7QJV4); test: split reporter; firefly luciferase complementation imaging (LCI); nLUC and cLUC fusions coexpressed in N. benthamiana leaves, imaged 50 h after injection
[2] = target: SlVQ15 fused with the DNA binding domain (BD) in pLexA (tomato (Solanum lycopersicum)); test: two-hybrid; Y2H screening; SlVQ15 in pLexA (BD) as bait against a cDNA library from roots of 28-day-old CM seedlings infected with M. incognita for 24 h; 68 positive colonies

binding [1]	binding [2]	Substance
binds	–	nLUC-fused SlJAZ3 (from UniProt B6D1Q5)
binds	–	nLUC-fused SlJAZ5 (from UniProt A0A3Q7FUH8)
–	binds	SlWRKY30IIc fragment aa 170-322 captured in the Y2H screen (from UniProt L7QJV4) (domain or fragment)
binds	–	nLUC-fused SlJAZ1 (from UniProt A0A3Q7H988)
